Source: publication PMC4428707

B1: CD14 (receptor, UniProt P10810 16-336)
chain: SPAPPEPCELDEESCSCNFSDPKPDWSSAFNCLGAADVELYGGGRSLEYLLKRVDTEADLGQFTDIIKSLSLKRLTVRAARIPSRILFGALRVLGISGLQELTLENLEVTGTAPPPLLEATGPDLNILNLRNVSWATRDAWLAELQQWLKPGLKVLSIAQAHSLNFSCEQVRVFPALSTLDLSDNPELGERGLISALCPLKFPTLQVLALRNAGMETPSGVCSALAAARVQLQGLDLSHNSLRDAAGAPSCDWPSQLNSLNLSFTGLKQVPKGLPAKLSVLDLSYNRLDRNPSPDELPQVGNLSLKGNPFLDSESHSEKFN
B2: scavenger receptor class A (SR-A) (receptor, UniProt P30204 1-458)
chain: MTKEMTENQRLCPHEQEDADCSSESVKFDARSMTASLPHSTKNGPSLQEKLKSFKAALIALYLLVFAVLIPVVGIVTAQLLNWEMKNCLVCSLNTSDTSQGPMEKENTSKVEMRFTIIMEHMKDMEERIESISNSKADLIDTERFQNFSMATDQRLNDILLQLNSLISSVQEHGNSLDAISKSLQSLNMTLLDVQLHTETLNVRVRESTAKQQEDISKLEERVYKVSAEVQSVKEEQAHVEQEVKQEVRVLNNITNDLRLKDWEHSQTLKNITFIQGPPGPQGEKGDRGLTGQTGPPGAPGIRGIPGVKGDRGQIGFPGGRGNPGAPGKPGRSGSPGPKGQKGEKGSVGGSTPLKTVRLVGGSGAHEGRVEIFHQGQWGTICDDRWDIRAGQVVCRSLGYQEVLAVHKRAHFGQGTGPIWLNEVMCFGRESSIENCKINQWGVLSCSHSEDAGVTCTS

Experiments:
[1] = molecular target: SP-R210S, short isoform of the surfactant protein A receptor SP-R210 (Myo18A) (mouse (endogenous in Raw264.7)); experiment: co-IP; precipitation with affinity purified polyclonal anti-SP-R210 (recognises SP-R210L and SP-R210S) from 5 mg/mL extracts of control and SP-R210L(DN) Raw264.7 cells; lysis buffer 50 mM Tris-HCl pH 8.0, 150 mM NaCl, 1% NP-40; protein G beads, 4°C; Western blot
[2] = molecular target: SP-R210S, short isoform of the surfactant protein A receptor SP-R210 (Myo18A) (mouse (endogenous in Raw264.7)); experiment: co-IP; precipitation with monoclonal anti-SP-R210 from 2.5 mg/mL extracts of control and SP-R210L(DN) Raw264.7 cells, before and 10, 30, 60 and 120 min after 100 ng/mL LPS; re-probed with polyclonal SP-R210 antibodies; control: monoclonal IgG1 against an unrelated viral antigen

binding [1]	binding [2]	Binder
binds	binds	B1
binds		B2

No constants are given. Whether binding was seen depends on the method and setting. In cells and extracts the contact can be indirect. Binding calls can cover weak binding; strength is not graded here.
